Results published in patent publication US20180002425A1.
Results are given in words; binding and its absence hold for the method and conditions named. Some binding calls cover weakened binding; strength is not graded here.

Protein sequences, listed by entry. Tags and fused reporters are not part of them. Residues count along the entry.
UniProt Q08351, residues 26-482: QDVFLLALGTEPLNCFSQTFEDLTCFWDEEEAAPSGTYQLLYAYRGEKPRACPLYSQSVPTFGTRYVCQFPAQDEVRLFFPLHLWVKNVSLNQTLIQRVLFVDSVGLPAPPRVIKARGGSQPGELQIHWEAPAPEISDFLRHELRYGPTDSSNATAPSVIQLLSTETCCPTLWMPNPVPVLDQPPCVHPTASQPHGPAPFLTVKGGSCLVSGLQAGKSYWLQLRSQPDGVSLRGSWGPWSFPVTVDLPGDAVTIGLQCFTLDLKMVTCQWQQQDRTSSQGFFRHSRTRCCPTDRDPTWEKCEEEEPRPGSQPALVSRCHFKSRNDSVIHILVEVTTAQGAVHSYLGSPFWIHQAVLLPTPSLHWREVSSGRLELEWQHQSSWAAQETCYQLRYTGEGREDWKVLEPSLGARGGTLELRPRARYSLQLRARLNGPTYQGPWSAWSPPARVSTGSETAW

T1: granulocyte colony stimulating factor receptor (UniProt Q99062)
T1 sequence (looked up): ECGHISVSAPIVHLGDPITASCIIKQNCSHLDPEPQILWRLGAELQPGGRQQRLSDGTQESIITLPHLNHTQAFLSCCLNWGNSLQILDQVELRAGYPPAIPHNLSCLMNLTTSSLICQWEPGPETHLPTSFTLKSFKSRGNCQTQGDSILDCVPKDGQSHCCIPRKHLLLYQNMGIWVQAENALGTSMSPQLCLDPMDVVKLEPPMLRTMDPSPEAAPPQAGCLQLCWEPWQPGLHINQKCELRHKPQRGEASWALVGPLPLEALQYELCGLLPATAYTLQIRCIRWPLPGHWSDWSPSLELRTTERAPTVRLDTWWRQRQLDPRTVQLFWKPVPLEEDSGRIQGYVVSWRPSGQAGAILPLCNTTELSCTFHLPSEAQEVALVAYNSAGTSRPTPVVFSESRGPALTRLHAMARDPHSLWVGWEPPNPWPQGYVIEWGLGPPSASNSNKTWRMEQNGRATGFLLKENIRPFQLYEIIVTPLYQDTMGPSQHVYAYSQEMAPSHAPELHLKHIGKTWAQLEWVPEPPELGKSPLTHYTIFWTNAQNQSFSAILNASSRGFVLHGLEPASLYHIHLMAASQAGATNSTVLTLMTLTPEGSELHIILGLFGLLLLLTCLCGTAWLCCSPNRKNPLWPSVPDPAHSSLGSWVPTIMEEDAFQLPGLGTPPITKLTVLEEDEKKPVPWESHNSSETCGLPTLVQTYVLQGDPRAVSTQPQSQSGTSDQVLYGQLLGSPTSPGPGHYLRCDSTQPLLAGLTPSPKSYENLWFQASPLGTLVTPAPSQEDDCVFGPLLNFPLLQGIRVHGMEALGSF

B1: 3B3 anti-G-CSFR agonist antibody (Fc fusion, not shown: a dimerising Fc or GST)
scFv: MAQVQLLESGPGLVKPSQTLSLTCTVSGGSISSGGYYWSWIRQPPGKGLEWIGYIYYSGSTNYNPSLKSRVTISVDTSKNQFSLKLSSVTAADTAVYYCARWNGVNNAFDIWGQGTLVTVSSGGGGSGGGGSGGGGSDIQMTQSPSSVSASVGDRVTITCRASQGISSWLAWYQQKPGKAPKLLIYAASSLQSGVPSRFSGSGWGTELTLTISSLQPEDFATYYCLQHNTYPFTFGQGTKVTVLG
B2: 3D9 TpoR agonist antibody (Fc fusion, not shown: a dimerising Fc or GST)
scFv: MAQVQLVQSGAEVRKVGSSVKVSCKASRDTFNTYGISWVRQAPGQGLEWMGGIIPIFGTADYAQKFRGRVTITADESTSTAYMELSSLRSEDTAVYYCARDRKLGGSDYWGQGTLVTVSSGGGGSGGGGSGGGGSDIVMTQSPSSVSASVGDKVTITCRASQGLGRWLAWYQQEPGKAPKLLIYAASTLQRGVPSRFSGSGSGTDFTLTISSLQPEDFATYYCQQSNSFPWTFGQGTKLEIKR

Assays:
[1] = molecular target: T1, granulocyte colony stimulating factor receptor; experiment: figure legend (FIG. 11)
[2] = molecular target: T1, granulocyte colony stimulating factor receptor; experiment: western blot of control and CD114 (G-CSFR) transfected samples, probed with 3B3
[3] = molecular target: T1, granulocyte colony stimulating factor receptor; experiment: western blotting and FACS
mouse TpoR (mouse) = mouse TpoR (mouse) (UniProt Q08351); experiment: immunochemical studies (not detailed)

Row | Binder | binding [1] | binding [2] | binding [3] | binding (mouse TpoR (mouse))
1 | B1 | binds | binds | binds | 
2 | B2 |  |  |  | binds
